Assay: soluble on expression in E. coli; label from the status in PepcDB or PDB records

## GSHMATMALSTAGSGGPPVNHAHAVSVWEFESRGKWLPYSPAVSQHLERAHAKKLTRVMLSDADPSLEQYYVNVRTMTQESEAETAGSGLLTIGVRRMFYAPSSPAGKGTKWEWSGGSADSNNDWRPYNMHVQSIIEDAWARGEQTLDLSNTHIGLPYTINFSNLTQLRQPSGPMRSIRRTQQAPYPLVKLTPQQANQLKSNSASVSSQYNTLPKLGDTKSLHRVPMTRQQHPLPTSHQV
  soluble on expression in E. coli: soluble

## MAAQYGSMSFNPSTPGASYGPGRQEPRNSQLRIVLVGKTGAGKSATGNSILGRKVFHSGTAAKSITKKCEKRSSSWKETELVVVDTPGIFDTEVPNAETSKEIIRCILLTSPGPHALLLVVPLGRYTEEEHKATEKILKMFGERARSFMILIFTRKDDLGDTNLHDYLREAPEDIQDLMDIFGDRYCALNNKATGAEQEAQRAQLLGLIQRVVRENKEGCYTNRMYQRAEEEIQKQTQAMQELHRVELEREKARIREEYEEKIRKLEDKVEQEKRKKQMEKKLAEQEAHYAVRQQRARTEVESKDGILELIMTALQIASFILLRLFAED
  soluble on expression in E. coli: soluble

## MAGKFCSFCGRDIQQVERLIAGPNNVYICNECIDLFHDLLRSDRKVRIKNEIKEIPTPAEIKAELDKYIIGQERAKKVLSVAVYNHYKRVFSNLDSNDVEIEKSNVLLIGPTGTGKTYLARILAKILNVPFAIADATPLTEAGYVGEDVENVVLRLLEAANFDVERAQYGIIYIDEIDKIAKKSPNPSITRDVSGEGVQQALLKILEGTIANVPPQGGRKHPYQEFIKVDTRNILFIAGGAFDGLEEIIKRRIQSTTMGFGAEIKSKKEMRLGEILKHVTPDDLVQYGLIPEFVGRFPVIATLDDLSEDDLVRILKEPKNAVVRQYQKLFEIDGVKLEVTDEALRIIARKALKRGTGARALKNVFEEMMIDMMFELPNLKNVEKVVITEEVALGKEKPIVVMRESA
  soluble on expression in E. coli: soluble

## MAHHHHHHMALKRITKELQDLNKDPPTNCSAGPIGDDLFFWQATIMGPGDSPYENGVYFLNIKFPPDYPFKPPKIIFTTKIYHPNINTAGAICLDILKDQWSPALTISKVLLSISSLLTDPNADDPLVPEIAHVYKTDRTKYHQTAKAWTQKYAQ
  soluble on expression in E. coli: soluble

## MAHHHHHHMSHTAEDARVFREILQRDEECKHCFECGALSPQWCDVNHGVFVCLDCSGVHRSLGVHLSFVRSPTMDGWTNWRPEKLRQMQIGGNRRAREYFERNGVPKAPIRERYQSLGALRYGAMLEAEALGQPFDESSWAPPEWYERMVQSERNRPNGEGMPPQAPQQHRPINGMWGEGHGSTGSGGGKEWLDTLSGGWSVFSKKTKEIAETAGAQARSLITETNVEGVKGTLASGWGAISGFATQMSSKLLNKNQEDDLSVLSDMTQHVKTAVQDDNQGLVGRNMTQSHSEVGNAAFKGQANPYDGDFQSKKD
  soluble on expression in E. coli: not soluble

## MAQDIFMDPWQSATSFAMEDEDMGMPSGKYARMEDEMGENKERFARENHSEIERRRRNKMTHYINELAEMVPQCASLGRKPDKLTILRMAVSHMKGIRGHTAQDETSYKPSFLTDQELKHLILEAANGFLFVVCCQTGKVLYVADSITPVLNLKQEDWLQRNLNELIHPDDQDKIRDQLCGSEVSVNKVLDLKSGSVKREGASTRVHMSCRRGFICRMRVGALEPLHRLRNRRPLFQHAGQNYVVMHCTGYIKNAPPQGINAPASSCLVAIARLQVASMPVCADPTSTNQFSVRVSEDGKMTFIDARVSDLIGLSSDQLIGRYWWNLAHPADEKTLQDSFVALLSDQPMRINIRVRTSTDYIPCTVSAYKFMNPYSEQFEYVVATHQIAPQEDINNWVTAPTVPQPQASEFGELGGAPSAVDYGQSSSGGWRPEAQGAPQAQWQWDPMNGYNQ
  soluble on expression in E. coli: not soluble

## MEAYKIEHLNKSYADKTIFDNLDLSISEGEKIGLVGINGTGKSTLLKVIGGIDDDFTANVMHPNQYRIRYSSQKQDLNEDMTVFDAVLSSDTTTLRIIKQYEQAVQAYADDQSDKLFKRMMDAQDAMDQHDAWDYNAEIKTILSKLGIHDTTKYIKELSGGQQKRVVLAKTLIEQPDLLLLDEPTNHLDFESISWLINYVKQYPHTVLFVTHDRYFLNEVSTRIIELNRGKLASYPGNYESYIEMRAEREVTLQKQQQKQRALYKEELAWMRAGAKARTTKQQARINRFNDLENEVNQQYKDDKGELNLAYSRLGKQVFELEDLSKAINDKVLFEHLTEIIQKGERIGVVGPNGAGKTTLLNILSGEDQQFEGKLKTGQTVKVAYFKQTDETLDRDIRMIDYLREENEIAKEKDGTSVSITQLLERFLFPSATHGKKVYKLSGGEQKRLYLLRLLVHQPNVLLLDEPTNDLDTETLTILEDYIHTFGGTVITVSHDRYFLNKVAQSYWFIHDGQMEKIIGTFEDYESYKKSLDKNKSTLKQQSKSSTTVRKKNGLSYKEKLEYEQLMKRIEQAEVRMEEIDVLMIEASADYGKIKELNEEKEQLEIQYDLDITRWSELEEIKEQQ
  soluble on expression in E. coli: not soluble

## MEPSIKGDQEMLKIKKQGHQDLELGLTLLSRGTATSSELNLIDSFKTSSSSTSHHQHQQEQLADPRVFSCNYCQRKFYSSQALGGHQNAHKRERTLAKRGQYYKMTLSSLPSSAFAFGHGSVSRFASMASLPLHGSVNNRSTLGIQAHSTIHKPSFLGRQTTSLSHVFKQSIHQKPTIGKMLPEKFHLEVAGNNNSNMVAAKLERIGHFKSNQEDHNQFKKIDLTLKL
  soluble on expression in E. coli: not soluble

## METRQMAVDQTTGAVTNQTETSWHSIDWAKANREVKRLQVRIAKAVKEGRWGKVKALQWLLTHSFYGKALAVKRVTDNSGSRTPGVDGITWSTQEQKTQAIKSLRRRGYKPQPLRRVYIPKANGKQRPLGIPTMKDRAMQALYALALDSAVTSLLEHHHHHH
  soluble on expression in E. coli: not soluble

## MGHHHHHHSHMTTCEFEFIFLKEQVTRICNIAPLKAYFSVHKMGKILKKLSNFSFLTHRQSLTLSPRLECSGAISAHCNLHLLGSSNSAASASRVAGTTGACHHAQLIFVFLVETGFHHVGQDGLGLLTS
  soluble on expression in E. coli: not soluble

## MGSDKIHHHHHHMNEEQQVLQEQHQEQTQEQTQEQKETLPPQIERRIKKLISLGKKKGYITYEDIDKAFPPDFEGFDTNLIERIHEELEKHGINIVENEPEEEEISASSDEQELEELLEKESPEIHDSSNVRDSIKMYLKEIGKIPLLTPAQERELARRAQMGDKKAKEKLITSNLRLVVSIAKRYMGRGLSFQDLIQEGNIGLLKAVEKFDWRKGYKFSTYATWWIRQAITRAIADQARTIRIPVHMVETINKLNRLRREYYQKHGEEPSIEELAKMMGKPPEKIKEILEAAKETISLESPIGEDEDSSIEDFVADDSIASPKKEAMRMLMREELEKVLKTLSPREAMVLRMRYGLLDGKPKTLEEVGQYFNVTRERIRQIEVKALRKLRHPSRSKYLKSLLSLMDENEG
  soluble on expression in E. coli: not soluble

## MGSDKIHHHHHHMPDQAEHLRKNEPNIISVLSGKGGVGKSVIAVNLSLALKEKGLRVLLLDADVGFGSVEILLGFMAPKTLKDFFKSNVRIEDIVFETKYGVDVLSSGIDMEDLILFNLGDRRRFFDEFARLLRKYDYLVIDFPPGYNENLDQFYIQSDFLILVTSPEPTSIINTYTLIKLLSVKGITPEEIFLVMNMVRNMKEGRLAADRLKRVVERFVGFTIKNYFVIKEDQVVQRSVFLQEPFVRSHSRSQPSLAIYGLREKILKEPVQKKGFLNKIRQMLGIG
  soluble on expression in E. coli: not soluble

## MPQHKFLFTSESVSEGHPDKMCDQISDAVLDAHLAQDPHAKVACETVTKTGMIMLCGEITSKAVVDYQVLVRNVIKKIGYDDSSKGFDYKTCNVLVALEQQSPEIAAGVHVDKDSDDVGAGDQGIMFGYATDETEEAMPLTLLLSHKLNRKLHELRRSGELEWVRPDSKTQVTIEYASEGGACVPLRVHTVVISTQHSPDISLDDLRKELIEKVIKAVIPANLIDDKTIYHLNPCGSFIIGGPMGDAGLTGRKIIVDTYGGWGAHGGGAFSGKDPTKVDRSAAYAARWVAKSLVKAGLCRRCLVQVSYAIGVAKPLSVMVFSFGTSALSEEDLLTIVNDNFDLRPGKIIKNLDLKRPIYEPTAENGHFGHNNFPWEQPRNLKISADMLAKSQGPAQPDVIGIAH
  soluble on expression in E. coli: not soluble

## MRIILLGAPGAGKGTQAQFIMEKYGIPQISTGDMLRAAVKSGSELGKQAKDIMDAGKLVTDELVIALVKERIAQEDCRNGFLLDGFPRTIPQADAMKEAGINVDYVLEFDVPDELIVDRIVGRRVHAPSGRVYHVKFNPPKVEGKDDVTGEELTTRKDDQEETVRKRLVEYHQMTAPLIGYYSKEAEAGNTKYAKVDGTKPVAEVRADLEKILG
  soluble on expression in E. coli: soluble

## MSRIENESGFLSSDAASVGSEDDKVEMKKRNGTIPKEDHLKSMCNAYQSIIQHVGEDINRQGLLKTPERAAKAMMAFTKGYDDQLDELLNEAVFDEDHDEMVIVKDIEMFSLCEHHLVPFMGKVHIGYIPNKKVLGLSKLARIVEMFSRRLQVQERLTKQIATAMVQAVQPSGVAVVIEASHMCMVMRGVQKINASTTTSCMLGVFRDDPKTREEFLNLINKR
  soluble on expression in E. coli: not soluble

## MVKARKEGKVSKKLKQKPDYGPVKNRHTFRGSNHSMNPDRKPDAKDKSQRSKATINRLRMYKSFKPIRDSKGKILKAAPFQDTLASGTQARIEPNRKWFGNTRIIGQEQLQKFQANLGKVLSDPFQVVMKQTKLPISLLQEKAKTQRVHVTETESFEYTFGKKSLRKKAKLTEASLEEMSKSAEDRDVKYKPELDLSREKELGDRPENMNPLFRAGQSNRVWGELYKVIDSSDVVVQVVDARDPMGTRCRHVEEFLRKEKPHKHLVTVINKVDLVPTWVTRKWIGELSKEMPTIAFHASINNSFGKGAVINLLRQFAKLHPDRPQISVGFIGYPNVGKSSLVNTLRKKKVCKTAPIAGETKVWQYVMLMRRIYLIDSPGVVYPQGDSETQIILKGVVRVENVKDPENHVQGVLDRCKPEHLRRQYGIPEFTDVDDFLTKIAIKQGRLLKGGDPDIVAVSKVVLNEFQRGKLPYFVPPPGCEERAKKDFSQAPINEMCADDDEQLPLDAQLELDDVARNGGPDEDDDEAIDDEEQEELTEIGSTCSGLTDLSGISDLAGDLSDADDVADDDEKPSSSDSKTKKSKTDVASVRTRGKRGGKKANKAKLSGKTIVQAASEKKDKSVVEFAKPGATKTNMWRKKLEKRRKVKHQK
  soluble on expression in E. coli: not soluble

## RTEQQAASLEQTAASMEQLTATVKQNAENARQASHLALSASETAQRGGKVVDNVVQTMRDISTSSQKIADIISVIDGIAFQTNILALNAAVEAARAGEQGRGFAVVAGEVRNLAQRSAQAAREIKSLIEDSVGKVDVGSTLVESAGETMAEIVSAVTRVTDIMGEIASASDEQSRGIDQVGLAVAEMDRVTQQNAALVEQSAAAAAALEEQASRLTEAVAVFRIQQQ
  soluble on expression in E. coli: soluble
